Test results as given in patent US20150315292A1 (VANDERBILT UNIVERSITY, published 2015).

Molecular target: baboon factor XII (baboon)
Assay: Western blot of plasma after SDS-PAGE

- binding: binds
B1: monoclonal anti-human fXII antibody AB042 (antibody, V domains shown)
VH: EVQLQQSGAELVRPGASVKLSCTASGFNIKDDYMHWVKQRPEQGLEWIGWIDPENGDTEYASKFQGKATITSDTSSNTAYLQLSSLTSEDTAVYYCTENYYGSSFFAYWGQGTLVTVSA
VL: DIVMTQATPSVPVTPGESVSISCRSSKSLLHSNGITYLYWFLQRPGQSPQRLIYYMSNLASGVPDRFSGRGSGTDFTLRISRVEAEDVGVYYCMQSLEYPYTFGGGTKLEIKR
notes: Mouse hybridoma IgG raised in fXII knockout mice immunized with human fXII

These are yes or no findings as the source states them, for the method shown. A result given as binding can be weak or reduced; the word gives no strength.
